From PubChem BioAssay AID1671190 (National Center for Advancing Translational Sciences (NCATS), 2021)
Out of some 580,000 compounds screened, about 6,100 (1.1%) were called active. This list was built around the results that the source calls inconclusive (neither active nor inactive); the mix of calls is not that of the screen. Calls come from the whole dose curve; as a rule, active = well fitted inhibition curve with a large enough effect; inconclusive = small, poorly fitted or top-dose-only effect, or another doubt; inactive = no such curve, though single readings can be large or run the other way. Potencies of inconclusive entries are doubtful fits and often do not repeat.

The chains behind the UniProt entries cited, without tags or fusion partners. Where a name states a change or a piece, a line headed by the entry shows the natural chain unless it says otherwise.
UniProt P18054: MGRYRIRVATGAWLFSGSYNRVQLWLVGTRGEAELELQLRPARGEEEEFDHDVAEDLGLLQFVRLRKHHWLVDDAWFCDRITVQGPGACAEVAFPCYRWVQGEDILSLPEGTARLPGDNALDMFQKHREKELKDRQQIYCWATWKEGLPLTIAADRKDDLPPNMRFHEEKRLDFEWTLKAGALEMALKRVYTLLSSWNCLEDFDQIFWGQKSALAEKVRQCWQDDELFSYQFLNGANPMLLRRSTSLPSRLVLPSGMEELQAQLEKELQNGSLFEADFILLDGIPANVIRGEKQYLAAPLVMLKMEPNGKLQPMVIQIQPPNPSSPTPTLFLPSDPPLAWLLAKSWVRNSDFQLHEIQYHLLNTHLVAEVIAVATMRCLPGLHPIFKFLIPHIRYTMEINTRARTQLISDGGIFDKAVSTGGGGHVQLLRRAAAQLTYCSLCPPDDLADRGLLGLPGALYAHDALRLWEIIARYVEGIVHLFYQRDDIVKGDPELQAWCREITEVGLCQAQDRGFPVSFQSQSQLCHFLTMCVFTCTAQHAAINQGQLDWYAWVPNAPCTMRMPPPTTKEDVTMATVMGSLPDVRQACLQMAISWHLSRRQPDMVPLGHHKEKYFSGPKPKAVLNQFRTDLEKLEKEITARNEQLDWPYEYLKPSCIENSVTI

What follows are compounds tested against Polyunsaturated fatty acid lipoxygenase ALOX12 (Homo sapiens) (UniProt P18054) (assay: Primary qHTS assay for inhibitors of human arachidonate 12S-lipoxygenase (ALOX12): Round 2). Settings: purified 12hLO, xylenol orange hydroperoxide absorbance; activity change, negative = inhibition: at 108 µM (top of the series) unless noted.
How it was run: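 Hydroperoxide product was detected by ferrous iron/xylenol orange as the 573 to 405 nm absorbance ratio. Arachidonic acid at 40 uM (final) was turned over for 30 min at room temperature by 150 nM human 12hLO, pH 7.0 Hepes buffer, after 15 min compound preincubation.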
% is set by controls: 0 for no effect and ±100 for the full control effect; potency is the fitted concentration of half-maximal effect.

SMILES	Potency	activity change, negative = inhibition
Clc1c(/C=N/Nc2ccccc2)sc2ccccc12	inconclusive: 50.1 µM [inhibitor, partial curve, poor fit]	
CC1CCCN(C(=O)CN2C(=O)CSc3ccc(S(=O)(=O)N4CCOCC4)cc32)C1 (centres undefined)		inactive: -29.1%
Cc1sc2nc(CSc3cccc(C(F)(F)F)c3)[nH]c(=O)c2c1C		inactive: -24.3%
COc1ccc(C2(C)NC(=O)N(CC(=O)Nc3ccc4c(c3)CCC4)C2=O)cc1OC (centres undefined)	inconclusive: 158 µM [inhibitor, single point]	
CSc1ccc(CN(C)CC(=O)NC(=O)NC2CCCC2)cc1		inactive: 11.2%
CCc1ccc(C2c3c(oc4cc(C)c(C)cc4c3=O)C(=O)N2c2nc(C)c(C(=O)OC)s2)cc1 (centres undefined)		inactive: -5.76%
CCN1CCN(c2ccc(S(=O)(=O)N3CCCCC3)cc2NC(=O)/C=C/c2ccc(OC)c(OC)c2)CC1	inconclusive: 39.8 µM [inhibitor, partial curve, poor fit]	
CCCCCCCCNCCS(=O)(=O)NCc1ccccc1		inactive: -38.6%
O=C(Nc1cccs1)Nc1ccccc1Br	inconclusive: 35.5 µM [inhibitor, partial curve, poor fit]	
O=C1NC[C@H](CCCCN2C[C@H](Cc3ccccc3)N(CCc3ccccc3)C(=O)C2=O)N(CCC2CCCCC2)C1=O	inconclusive: 3.98 µM [inhibitor, full curve, poor fit]	
Cc1ccc(C(=O)OCC(=O)c2ccc(CC(=O)N3CCOCC3)s2)cc1C		inactive: 0.863%
C[C@H]1CN([C@@H](C)CO)C(=O)c2cccc(NC(=O)Nc3ccc(C(F)(F)F)cc3)c2O[C@H]1CN(C)C	inconclusive: 79.4 µM [inhibitor, single point]	
CC(C)(C)Sc1ccc(N)nc1	inconclusive: 7.08 µM [inhibitor, full curve, poor fit]	
COc1c(F)cccc1C1=CC(=O)C[C@H](c2ccc3c(c2)OCO3)C1		inactive: 6.11%
CCNC(=O)N[C@H]1C[C@@H](Cc2cc(COc3ccccc3)on2)C1(C)C		inactive: 4.83% [at 176 µM]
CC1(C)CC(=O)C2=C(C1)c1c(ccc3ncccc13)NC2c1cccs1 (centres undefined)	inconclusive: 89.1 µM [inhibitor, partial curve, poor fit]	
COc1ccc(CC(=O)N2CCOC[C@H](Oc3ccc(OC)cc3)C2)cc1		inactive: 42.6% [at 176 µM]
COc1ccc(C(C(=O)NC2CCCC2)N(C(=O)c2csnn2)C2CC2)cc1 (centres undefined)	inconclusive: 126 µM [inhibitor, single point]	
O=C1Nc2ccccc2CC12CN(Cc1cscn1)C2	inconclusive: 12.6 µM [inhibitor, full curve, poor fit]	

Single values from the results shown.
Value for O=C1NC[C@H](CCCCN2C[C@H](Cc3ccccc3)N(CCc3ccccc3)C(=O)C2=O)N(CCC2CCCCC2)C1=O under Potency: inconclusive: 3.98 µM [inhibitor, full curve, poor fit]
Value for CCc1ccc(C2c3c(oc4cc(C)c(C)cc4c3=O)C(=O)N2c2nc(C)c(C(=O)OC)s2)cc1 (centres undefined) under activity change, negative = inhibition: inactive: -5.76%
